According to doi:10.1101/2025.04.23.650309:
Changes are numbered by the printed parent chain. Names and notes keep the numbering of the source. No constants are given. Whether binding was seen depends on the method and setting. In cells and extracts the contact can be indirect. Some binding calls cover weakened binding; strength is not graded here. Tags and fused reporters may be left off the sequences shown.

By UniProt entry, the sequences of proteins in these tests, tags left out. Where a name states a change or a piece, a line headed by the entry shows the natural chain unless it says otherwise.
UniProt O00308, whole entry: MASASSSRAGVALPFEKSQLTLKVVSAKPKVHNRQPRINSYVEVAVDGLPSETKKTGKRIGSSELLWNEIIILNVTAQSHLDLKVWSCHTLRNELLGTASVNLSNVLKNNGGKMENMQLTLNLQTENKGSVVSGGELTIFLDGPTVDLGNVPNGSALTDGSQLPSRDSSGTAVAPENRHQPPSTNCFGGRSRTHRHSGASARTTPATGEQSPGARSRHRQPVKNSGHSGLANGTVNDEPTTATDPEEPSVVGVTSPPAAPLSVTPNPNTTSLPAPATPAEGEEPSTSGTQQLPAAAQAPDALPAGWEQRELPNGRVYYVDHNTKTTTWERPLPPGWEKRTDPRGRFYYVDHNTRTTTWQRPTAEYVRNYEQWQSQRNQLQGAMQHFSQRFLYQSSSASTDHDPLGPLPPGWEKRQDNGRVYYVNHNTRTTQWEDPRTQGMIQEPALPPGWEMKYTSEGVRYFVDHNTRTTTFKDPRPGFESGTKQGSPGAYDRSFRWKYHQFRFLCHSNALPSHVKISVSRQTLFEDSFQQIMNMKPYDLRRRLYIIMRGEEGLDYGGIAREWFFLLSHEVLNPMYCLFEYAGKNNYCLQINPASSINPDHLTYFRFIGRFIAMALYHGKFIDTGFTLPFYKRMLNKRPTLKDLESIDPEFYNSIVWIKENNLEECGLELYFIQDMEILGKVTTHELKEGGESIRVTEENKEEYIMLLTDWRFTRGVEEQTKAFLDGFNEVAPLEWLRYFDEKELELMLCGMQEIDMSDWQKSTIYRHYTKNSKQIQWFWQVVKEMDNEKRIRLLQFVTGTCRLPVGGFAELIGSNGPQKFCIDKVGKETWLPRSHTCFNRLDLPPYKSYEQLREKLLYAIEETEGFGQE

B1: FLAG-NDFIP2 (WT) (protein, UniProt Q9NV92 1-336)
chain: MARRRSQRVCASGPSMLNSARGAPELLRGTATNAEVSAAAAGATGSEELPPGDRGCRNGGGRGPAATTSSTGVAVGAEHGEDSLSRKPDPEPGRMDHHQPGTGRYQVLLNEEDNSESSAIEQPPTSNPAPQIVQAASSAPALETDSSPPPYSSITVEVPTTSDTEVYGEFYPVPPPYSVATSLPTYDEAEKAKAAAMAAAAAETSQRIQEEECPPRDDFSDADQLRVGNDGIFMLAFFMAFIFNWLGFCLSFCITNTIAGRYGAICGFGLSLIKWILIVRFSDYFTGYFNGQYWLWWIFLVLGLLLFFRGFVNYLKVRNMSESMAAAHRTRYFFLL
B2: FLAG-NDFIP2^Y151A;Y177A (protein, UniProt Q9NV92 1-336)
chain: B1 chain with Y151A, Y177A
B3: FLAG-NDFIP2^Y177A (protein, UniProt Q9NV92 1-336)
chain: B1 chain with Y177A
B4: FLAG-NDFIP2^Y186A (protein, UniProt Q9NV92 1-336)
chain: B1 chain with Y186A
B5: FLAG-NDFIP2^Y151A (protein, UniProt Q9NV92 1-336)
chain: B1 chain with Y151A

Biological target: HA-WWP2 (full length) (UniProt O00308)
Assay: co-IP

| binding | Binder |
| --- | --- |
| binds | B1 |
| binds | B2 |
| binds | B3 |
| binds | B4 |
| binds | B5 |
